Experimental data from paper PMC4498186.
Results are given in words; binding and its absence hold for the method and conditions named.

Amino acid sequences for entries named in this document (tags omitted). A change or cut given only in a name is not applied to a line headed by its entry. Chains listed by the source or under a name are the forms on record and can include a tag or linker.
eGFP-tagged CRF1R StaR (full length, 12 point mutations) (P34998-2, form named): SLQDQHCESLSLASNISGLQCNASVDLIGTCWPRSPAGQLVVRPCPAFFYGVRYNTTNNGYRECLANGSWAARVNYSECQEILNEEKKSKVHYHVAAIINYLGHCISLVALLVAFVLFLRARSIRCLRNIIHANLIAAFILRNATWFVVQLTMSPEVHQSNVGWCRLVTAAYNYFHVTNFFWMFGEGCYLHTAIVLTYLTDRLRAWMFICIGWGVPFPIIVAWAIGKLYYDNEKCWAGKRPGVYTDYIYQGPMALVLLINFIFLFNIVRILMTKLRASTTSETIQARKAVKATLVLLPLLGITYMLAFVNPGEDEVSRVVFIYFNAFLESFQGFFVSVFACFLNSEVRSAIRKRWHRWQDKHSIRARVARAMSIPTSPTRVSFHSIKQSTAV

Target: eGFP-tagged CRF1R StaR (full length, 12 point mutations) (UniProt P34998)
Assay: SEC; fluorescence-detection size exclusion chromatography (FSEC) of eGFP-tagged receptor solubilised from HEK293T cells, analysed in DDM

eGFP-tagged CRF1R StaR (full length, 12 point mutations) (from UniProt P34998-2 24-415) (receptor)
binding: no binding
